Assay results: article PMC6697806
These are yes or no findings as the source states them, for the method shown. In cells and extracts the contact can be indirect. Some binding calls cover weakened binding; strength is not graded here. Tags and fused reporters may be left off the sequences shown.

Chains of the proteins cited; added tags and fusions are not shown. Residues count along the entry.
UniProt Q13586, residues 23-685: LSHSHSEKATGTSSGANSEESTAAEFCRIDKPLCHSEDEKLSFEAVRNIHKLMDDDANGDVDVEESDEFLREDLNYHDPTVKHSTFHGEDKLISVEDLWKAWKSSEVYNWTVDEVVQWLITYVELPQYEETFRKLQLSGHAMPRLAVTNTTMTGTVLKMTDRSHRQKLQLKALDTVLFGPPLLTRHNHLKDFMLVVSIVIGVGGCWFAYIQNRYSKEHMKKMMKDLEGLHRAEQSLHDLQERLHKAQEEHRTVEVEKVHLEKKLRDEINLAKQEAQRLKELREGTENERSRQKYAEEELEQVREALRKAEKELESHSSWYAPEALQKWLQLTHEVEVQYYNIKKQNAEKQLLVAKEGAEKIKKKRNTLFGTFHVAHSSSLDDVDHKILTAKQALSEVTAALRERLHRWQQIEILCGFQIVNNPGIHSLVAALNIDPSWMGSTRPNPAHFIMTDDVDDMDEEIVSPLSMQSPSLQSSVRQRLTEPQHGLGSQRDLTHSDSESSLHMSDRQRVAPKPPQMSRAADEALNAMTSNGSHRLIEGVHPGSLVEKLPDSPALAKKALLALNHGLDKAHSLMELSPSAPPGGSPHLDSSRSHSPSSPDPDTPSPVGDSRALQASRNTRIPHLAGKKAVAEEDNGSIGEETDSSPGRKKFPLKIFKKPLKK

Experiments:
[1] = biological target: Tmem203 tagged at its N terminus with the V1 fragment of Venus yellow fluorescent protein (UniProt Q8R235); experiment: split reporter; Venus YFP fragment complementation assay (PCA; V1 and V2 fragments), HEK293T cells cotransfected, Venus fluorescence detected by flow cytometry (mean fluorescence intensity)
[2] = biological target: Tmem203 tagged at its N terminus with the V1 fragment of Venus yellow fluorescent protein (UniProt Q8R235); experiment: split reporter; Venus YFP fragment complementation assay (PCA; V1 and V2 fragments), HeLa cells cotransfected, Venus fluorescence visualized by microscopy
FLAG-STIM1 = FLAG-STIM1 (UniProt Q13586); experiment: co-IP; HEK293T cells transfected with the tagged constructs; complexes immunoprecipitated with anti-FLAG-coated beads and blotted for Myc or HA and FLAG

Row | Binder | binding [1] | binding [2] | binding (FLAG-STIM1)
1 | Tmem203 tagged at its N terminus with the V1 fragment of Venus yellow fluorescent protein (protein, UniProt Q8R235 1-136) MLFSLRELVQWLGFATFEIFVHLLALLVFSVLLALRVDGLTPGLSWWNVFVPFFAADGLSTYFTTIVSVRLFQDGEKRLAVLRLFWVLTVLSLKFVFEMLLCQKLVEQTRELWFGLITSPVFILLQLLMIRACRVN | binds | binds | 
2 | HA-TMEM203 (protein, UniProt Q8R235 1-136) MLFSLRELVQWLGFATFEIFVHLLALLVFSVLLALRVDGLTPGLSWWNVFVPFFAADGLSTYFTTIVSVRLFQDGEKRLAVLRLFWVLTVLSLKFVFEMLLCQKLVEQTRELWFGLITSPVFILLQLLMIRACRVN |  |  | binds
